This passage reports binding results from PMC12561193.

No constants are given. Whether binding was seen depends on the method and setting. In cells and extracts the contact can be indirect. Some results given as binding are weak or reduced against the parent protein; the word gives no strength.

In assay [1] the target is T1, full-length mouse Glce (AAV-mGlce) (mouse) (UniProt Q9EPS3).
T1 sequence: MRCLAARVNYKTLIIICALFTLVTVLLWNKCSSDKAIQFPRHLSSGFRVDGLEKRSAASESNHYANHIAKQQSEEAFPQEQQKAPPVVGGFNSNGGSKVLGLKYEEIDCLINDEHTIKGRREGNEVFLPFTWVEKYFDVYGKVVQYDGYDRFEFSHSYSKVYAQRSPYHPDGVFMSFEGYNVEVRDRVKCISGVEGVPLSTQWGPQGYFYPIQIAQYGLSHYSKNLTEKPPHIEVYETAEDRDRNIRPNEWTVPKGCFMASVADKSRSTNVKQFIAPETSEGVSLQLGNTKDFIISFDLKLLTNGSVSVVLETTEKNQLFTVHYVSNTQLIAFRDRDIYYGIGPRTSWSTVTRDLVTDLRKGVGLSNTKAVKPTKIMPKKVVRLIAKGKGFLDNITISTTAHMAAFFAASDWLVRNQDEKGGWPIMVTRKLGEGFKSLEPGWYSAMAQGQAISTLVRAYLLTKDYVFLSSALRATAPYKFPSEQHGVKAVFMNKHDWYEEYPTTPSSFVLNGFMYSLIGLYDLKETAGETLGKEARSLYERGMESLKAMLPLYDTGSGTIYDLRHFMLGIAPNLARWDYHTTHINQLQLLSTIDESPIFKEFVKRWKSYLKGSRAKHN
Nature of the assay: co-IP; kidneys of Glce-/- mice with sham or UUO treatment after AAV injection; GAPDH as input loading control.

Assay [2] addresses T2, Glce in HK-2 cells (human (endogenous in HK-2)) (UniProt O94923).
T2 sequence: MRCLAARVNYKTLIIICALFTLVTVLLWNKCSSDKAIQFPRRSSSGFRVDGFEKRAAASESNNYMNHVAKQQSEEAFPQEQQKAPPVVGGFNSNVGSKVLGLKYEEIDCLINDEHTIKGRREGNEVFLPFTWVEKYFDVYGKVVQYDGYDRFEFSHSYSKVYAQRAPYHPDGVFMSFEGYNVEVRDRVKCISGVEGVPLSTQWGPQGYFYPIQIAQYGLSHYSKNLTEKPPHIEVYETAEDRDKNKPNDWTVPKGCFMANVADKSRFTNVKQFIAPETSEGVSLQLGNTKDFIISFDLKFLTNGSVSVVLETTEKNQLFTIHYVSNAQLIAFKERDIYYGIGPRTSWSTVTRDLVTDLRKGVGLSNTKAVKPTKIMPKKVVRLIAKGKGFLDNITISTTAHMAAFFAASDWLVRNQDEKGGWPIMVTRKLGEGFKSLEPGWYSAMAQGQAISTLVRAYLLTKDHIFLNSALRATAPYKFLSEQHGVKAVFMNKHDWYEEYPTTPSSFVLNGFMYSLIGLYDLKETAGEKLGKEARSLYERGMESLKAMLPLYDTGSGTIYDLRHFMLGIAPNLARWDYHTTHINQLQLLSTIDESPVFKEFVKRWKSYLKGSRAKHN
As to the kind of experiment: co-IP; HK-2 cells, with or without EGFR activation by EGF; GAPDH as input loading control.

As to “EGFR in mouse kidney (from UniProt Q01279 25-1210) (receptor)”, the binding entry in assay [1] is given as “binds”.

Take “epidermal growth factor receptor (EGFR) in HK-2 cells (from UniProt P00533 25-1210)”: the binding result in assay [2] is recorded as “binds”.
